# In the M2OR odorant receptor database:
# Chains of the proteins cited; added tags and fusions are not shown. A line that says so, or that is headed by a name, gives the form on record, which may keep a tag or linker.
# OR2W1, as listed by the source: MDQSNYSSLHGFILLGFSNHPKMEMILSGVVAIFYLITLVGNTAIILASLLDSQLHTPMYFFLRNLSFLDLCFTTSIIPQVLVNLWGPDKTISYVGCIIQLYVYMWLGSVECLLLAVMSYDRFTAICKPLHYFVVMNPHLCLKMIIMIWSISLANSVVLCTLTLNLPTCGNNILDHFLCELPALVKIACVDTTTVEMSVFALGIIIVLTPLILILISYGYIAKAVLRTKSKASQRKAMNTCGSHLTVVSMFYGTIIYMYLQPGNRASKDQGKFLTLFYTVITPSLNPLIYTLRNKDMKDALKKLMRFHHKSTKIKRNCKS
# Substitutions are numbered along the chain they refer to. The list shows a part of the results, in another mix than the full data. The calls were merged from several studies; some rest on single wells. The list shows a part of the results. Some of the results follow.
# Tests used:
# Conditions in all cases: stereoisomer not certain
# [1] = tested on: T1, OR2T5
# T1 sequence (whole entry): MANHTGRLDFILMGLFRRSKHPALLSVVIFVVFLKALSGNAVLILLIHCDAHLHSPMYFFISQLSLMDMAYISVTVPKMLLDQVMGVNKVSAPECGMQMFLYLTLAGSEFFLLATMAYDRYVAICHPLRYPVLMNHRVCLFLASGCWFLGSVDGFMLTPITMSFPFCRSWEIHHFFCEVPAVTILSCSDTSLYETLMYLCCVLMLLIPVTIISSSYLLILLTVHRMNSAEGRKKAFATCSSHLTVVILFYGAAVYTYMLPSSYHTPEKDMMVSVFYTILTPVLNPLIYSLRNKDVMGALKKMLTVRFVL
# Method in brief: (§1)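 Whether a receptor–molecule pair is responsive (active) rests on the original authors' judgment that its measured signal was statistically different from baseline. Pairs without that judgment are non-responsive (inactive). Sources used varied assay methods, commonly transient luciferase assays in mammalian cell lines.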
# [2] = tested on: T2, OR2T6
# T2 sequence (whole entry): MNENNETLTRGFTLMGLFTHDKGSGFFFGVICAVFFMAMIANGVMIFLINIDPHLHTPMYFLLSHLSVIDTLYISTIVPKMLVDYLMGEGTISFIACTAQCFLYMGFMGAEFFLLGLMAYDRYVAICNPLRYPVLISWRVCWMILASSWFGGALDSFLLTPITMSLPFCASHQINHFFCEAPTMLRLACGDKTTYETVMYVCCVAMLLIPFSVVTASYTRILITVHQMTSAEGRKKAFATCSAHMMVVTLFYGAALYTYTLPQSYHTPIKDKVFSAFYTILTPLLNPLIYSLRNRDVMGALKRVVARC
# Method in brief: as §1
# [3] = tested on: T3, OR2T8
# T3 sequence (whole entry): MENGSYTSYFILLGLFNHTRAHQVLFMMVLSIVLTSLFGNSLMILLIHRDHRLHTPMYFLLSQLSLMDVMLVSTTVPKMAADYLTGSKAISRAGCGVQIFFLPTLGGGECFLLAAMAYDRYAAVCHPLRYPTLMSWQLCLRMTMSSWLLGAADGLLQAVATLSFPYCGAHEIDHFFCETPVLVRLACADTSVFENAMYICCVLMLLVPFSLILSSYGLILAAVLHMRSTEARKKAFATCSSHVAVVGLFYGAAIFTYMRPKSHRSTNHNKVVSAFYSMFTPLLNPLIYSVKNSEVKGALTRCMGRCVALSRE
# Method in brief: as §1
# [4] = tested on: T4, OR2V1
# T4 sequence (whole entry): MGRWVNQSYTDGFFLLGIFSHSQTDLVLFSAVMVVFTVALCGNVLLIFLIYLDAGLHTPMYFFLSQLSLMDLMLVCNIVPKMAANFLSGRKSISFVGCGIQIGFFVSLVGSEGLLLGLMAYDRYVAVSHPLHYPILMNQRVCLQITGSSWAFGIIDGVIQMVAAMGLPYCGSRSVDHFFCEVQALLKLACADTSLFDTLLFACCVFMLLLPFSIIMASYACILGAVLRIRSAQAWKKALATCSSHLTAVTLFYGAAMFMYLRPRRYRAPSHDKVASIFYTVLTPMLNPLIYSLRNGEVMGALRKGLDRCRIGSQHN
# Method in brief: as §1
# [5] = tested on: T5, OR2V2
# T5 sequence (whole entry): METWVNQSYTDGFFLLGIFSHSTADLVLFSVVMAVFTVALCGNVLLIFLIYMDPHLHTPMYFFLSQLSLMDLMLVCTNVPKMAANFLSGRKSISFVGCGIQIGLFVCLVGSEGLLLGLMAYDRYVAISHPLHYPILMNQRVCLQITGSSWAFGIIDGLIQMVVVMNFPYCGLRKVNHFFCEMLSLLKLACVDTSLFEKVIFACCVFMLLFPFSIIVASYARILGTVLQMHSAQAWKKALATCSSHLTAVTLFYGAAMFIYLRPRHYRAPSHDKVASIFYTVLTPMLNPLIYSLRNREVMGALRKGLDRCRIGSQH
# Method in brief: as §1
# [6] = target: T6, OR2W1 (Homo sapiens) (UniProt Q9Y3N9)
# T6 sequence (whole entry): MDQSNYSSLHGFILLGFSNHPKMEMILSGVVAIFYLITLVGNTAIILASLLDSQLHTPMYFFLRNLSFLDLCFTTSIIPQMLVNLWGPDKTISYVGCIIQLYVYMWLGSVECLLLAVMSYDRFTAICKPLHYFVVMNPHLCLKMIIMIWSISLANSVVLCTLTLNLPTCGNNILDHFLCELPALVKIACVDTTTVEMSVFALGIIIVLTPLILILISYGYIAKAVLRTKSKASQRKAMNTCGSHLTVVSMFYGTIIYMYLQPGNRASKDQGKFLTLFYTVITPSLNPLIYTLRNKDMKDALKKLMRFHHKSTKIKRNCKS
# Method in brief: as §1
# [7] = tested on: T7, OR2W1
# T7 sequence (whole entry): T6 sequence (whole entry) with D296N
# Method in brief: as §1
# [8] = tested on: T8, OR2W1; remark: listed apart in the source
# T8 sequence (whole entry): T6 sequence (whole entry) with M81V
# Method in brief: as §1
# [9] = tested on: T9, OR2W3
# T9 sequence (whole entry): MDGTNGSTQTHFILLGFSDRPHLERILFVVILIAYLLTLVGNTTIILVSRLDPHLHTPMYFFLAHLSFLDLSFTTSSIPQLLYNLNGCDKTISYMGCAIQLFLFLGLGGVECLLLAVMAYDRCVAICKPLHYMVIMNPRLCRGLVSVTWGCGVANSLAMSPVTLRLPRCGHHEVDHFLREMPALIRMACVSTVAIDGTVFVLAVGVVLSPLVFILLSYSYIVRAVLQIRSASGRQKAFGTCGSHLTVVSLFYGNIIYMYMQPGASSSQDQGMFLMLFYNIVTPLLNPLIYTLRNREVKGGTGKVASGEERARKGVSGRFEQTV
# Method in brief: as §1
# [10] = target: T10, OR2W5P (Homo sapiens) (UniProt A6NFC9)
# T10 sequence (whole entry): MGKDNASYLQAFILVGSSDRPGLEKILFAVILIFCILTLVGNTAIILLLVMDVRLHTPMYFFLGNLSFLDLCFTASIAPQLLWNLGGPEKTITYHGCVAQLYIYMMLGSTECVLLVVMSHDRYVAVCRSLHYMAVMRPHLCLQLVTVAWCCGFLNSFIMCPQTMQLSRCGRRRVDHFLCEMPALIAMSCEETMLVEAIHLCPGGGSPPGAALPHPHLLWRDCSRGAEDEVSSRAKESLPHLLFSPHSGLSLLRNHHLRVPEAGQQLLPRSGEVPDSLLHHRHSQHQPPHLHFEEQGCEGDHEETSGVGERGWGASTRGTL
# Method in brief: as §1
# [11] = tested on: T11, OR2Y1
# T11 sequence (whole entry): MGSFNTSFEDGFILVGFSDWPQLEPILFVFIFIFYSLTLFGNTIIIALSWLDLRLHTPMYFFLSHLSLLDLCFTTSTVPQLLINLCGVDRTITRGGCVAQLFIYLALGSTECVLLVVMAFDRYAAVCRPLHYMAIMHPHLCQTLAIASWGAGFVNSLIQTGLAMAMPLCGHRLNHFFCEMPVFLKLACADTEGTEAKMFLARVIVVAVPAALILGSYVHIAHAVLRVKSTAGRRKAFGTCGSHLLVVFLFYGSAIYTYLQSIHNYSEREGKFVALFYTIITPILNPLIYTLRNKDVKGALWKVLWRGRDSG
# Method in brief: as §1
# [12] = target: T12, OR2Z1 (Homo sapiens) (UniProt Q8NG97)
# T12 sequence (whole entry): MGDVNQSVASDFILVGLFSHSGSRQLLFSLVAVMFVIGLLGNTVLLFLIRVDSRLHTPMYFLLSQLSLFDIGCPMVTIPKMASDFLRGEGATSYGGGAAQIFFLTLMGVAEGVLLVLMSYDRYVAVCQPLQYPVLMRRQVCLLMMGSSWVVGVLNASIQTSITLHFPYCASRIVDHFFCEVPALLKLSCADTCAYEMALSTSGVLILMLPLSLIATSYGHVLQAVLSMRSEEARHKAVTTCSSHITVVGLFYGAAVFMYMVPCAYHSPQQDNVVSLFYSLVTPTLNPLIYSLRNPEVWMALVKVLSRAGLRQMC
# Method in brief: as §1
# [13] = target: T13, OR3A1 (Homo sapiens) (UniProt P47881)
# T13 sequence (whole entry): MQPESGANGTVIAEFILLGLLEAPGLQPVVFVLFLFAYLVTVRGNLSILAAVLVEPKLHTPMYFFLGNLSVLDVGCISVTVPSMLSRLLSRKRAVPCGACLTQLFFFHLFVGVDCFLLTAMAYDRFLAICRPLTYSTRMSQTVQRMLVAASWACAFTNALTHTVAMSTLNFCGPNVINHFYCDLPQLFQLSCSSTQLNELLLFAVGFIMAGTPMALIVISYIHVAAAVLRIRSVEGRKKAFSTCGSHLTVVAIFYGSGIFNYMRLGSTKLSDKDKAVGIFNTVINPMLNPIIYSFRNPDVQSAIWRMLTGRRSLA
# Method in brief: as §1
# [14] = target: T14, OR3A2 (Homo sapiens) (UniProt P47893)
# T14 sequence (whole entry): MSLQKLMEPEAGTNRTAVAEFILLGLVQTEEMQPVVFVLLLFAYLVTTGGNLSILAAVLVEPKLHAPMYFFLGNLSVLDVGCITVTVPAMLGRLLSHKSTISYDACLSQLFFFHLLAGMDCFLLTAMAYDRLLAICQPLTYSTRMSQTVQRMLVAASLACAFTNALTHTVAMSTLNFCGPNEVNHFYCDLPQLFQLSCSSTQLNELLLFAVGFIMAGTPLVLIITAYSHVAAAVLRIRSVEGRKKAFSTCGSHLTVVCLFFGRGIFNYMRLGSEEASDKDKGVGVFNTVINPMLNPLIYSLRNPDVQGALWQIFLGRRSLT
# Method in brief: as §1
# [15] = target: T15, OR2W3 (Homo sapiens) (UniProt Q7Z3T1)
# T15 sequence (whole entry): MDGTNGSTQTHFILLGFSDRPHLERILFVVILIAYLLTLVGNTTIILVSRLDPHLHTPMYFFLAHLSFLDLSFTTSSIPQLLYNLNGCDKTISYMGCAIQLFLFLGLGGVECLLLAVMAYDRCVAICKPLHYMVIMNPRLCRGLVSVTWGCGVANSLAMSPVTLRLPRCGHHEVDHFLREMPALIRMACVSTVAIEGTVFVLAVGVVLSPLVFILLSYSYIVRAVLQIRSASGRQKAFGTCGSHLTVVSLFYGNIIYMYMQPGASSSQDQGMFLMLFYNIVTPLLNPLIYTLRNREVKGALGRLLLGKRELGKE
# Method in brief: as §1
# 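Further: active if original authors judged signal statistically different from baseline.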
SMILES,odorant receptor agonist call [1],odorant receptor agonist call [2],odorant receptor agonist call [3],odorant receptor agonist call [4],odorant receptor agonist call [5],odorant receptor agonist call [6],odorant receptor agonist call [7],odorant receptor agonist call [8],odorant receptor agonist call [9],odorant receptor agonist call [10],odorant receptor agonist call [11],odorant receptor agonist call [12],odorant receptor agonist call [13],odorant receptor agonist call [14],odorant receptor agonist call [15]
CCC=CCCO,inactive,inactive,inactive,inactive,inactive,inactive,active,active,inactive,inactive,inactive,inactive,inactive,inactive,
CC12CCC(CC1)C(C)(C)O2,inactive,inactive,inactive,inactive,inactive,active,active,active,inactive,inactive,inactive,inactive,inactive,inactive,
CC1CCC(C(C)C)C(O)C1 (stereo unspecified),active,inactive,inactive,inactive,inactive,active,inactive,,active,inactive,inactive,inactive,inactive,inactive,inactive
O=CCc1ccccc1,inactive,inactive,active,active,inactive,inactive,inactive,,inactive,inactive,inactive,inactive,inactive,inactive,
C=C(C)C1CCC2=CC(=O)CC(C)C2(C)C1 (stereo unspecified),,,inactive,inactive,,inactive,,,,,,,,,
CCCCCCCCCC=O,inactive,inactive,inactive,inactive,inactive,inactive,inactive,,inactive,inactive,inactive,inactive,inactive,inactive,
CC(C)(O)CCCC1=CCC(C=O)CC1 (stereo unspecified),,,inactive,inactive,,inactive,,,,,,,,,inactive
COc1ccccc1O,inactive,inactive,inactive,inactive,inactive,inactive,inactive,,inactive,inactive,active,inactive,inactive,inactive,
C=CCc1ccc(O)c(OC)c1,,,,,,inactive,,,,,,,,,inactive
CC(C)=CCCC(C)=CC=O,inactive,inactive,inactive,inactive,inactive,inactive,active,,inactive,inactive,inactive,inactive,inactive,inactive,
COc1cc(C=O)ccc1O,inactive,inactive,inactive,inactive,inactive,,inactive,,inactive,inactive,inactive,inactive,inactive,inactive,inactive
C=C(C)C1CC=C(C)C(=O)C1 (stereo unspecified),,,,,,active,active,active,,,,,,,inactive
CC12CCC(C1)C(C)(C)C2=O (stereo unspecified),inactive,inactive,inactive,inactive,inactive,inactive,inactive,,inactive,inactive,inactive,inactive,inactive,inactive,
C=CCc1ccc(OC)c(OC)c1,inactive,inactive,inactive,inactive,inactive,,inactive,,inactive,inactive,inactive,inactive,inactive,inactive,
O=C1CCCCCCCCCCCC(=O)OCCO1,inactive,inactive,inactive,active,inactive,inactive,inactive,,inactive,inactive,inactive,inactive,inactive,inactive,
CC(=O)OC1CC2CCC1(C)C2(C)C (stereo unspecified),inactive,inactive,inactive,inactive,inactive,inactive,inactive,,inactive,inactive,inactive,inactive,inactive,inactive,

# Ordered by length of the SMILES (rising): part of the list above.
SMILES,odorant receptor agonist call [1],odorant receptor agonist call [2],odorant receptor agonist call [3],odorant receptor agonist call [4],odorant receptor agonist call [5],odorant receptor agonist call [6],odorant receptor agonist call [7],odorant receptor agonist call [8],odorant receptor agonist call [9],odorant receptor agonist call [10],odorant receptor agonist call [11],odorant receptor agonist call [12],odorant receptor agonist call [13],odorant receptor agonist call [14],odorant receptor agonist call [15]
O=CCc1ccccc1,inactive,inactive,active,active,inactive,inactive,inactive,,inactive,inactive,inactive,inactive,inactive,inactive,
C=CCc1ccc(O)c(OC)c1,,,,,,inactive,,,,,,,,,inactive
CC12CCC(CC1)C(C)(C)O2,inactive,inactive,inactive,inactive,inactive,active,active,active,inactive,inactive,inactive,inactive,inactive,inactive,
